{"sequences": {"note": "By UniProt entry, the sequences of proteins in these tests, tags left out.", "UniProt Q6P3S6": "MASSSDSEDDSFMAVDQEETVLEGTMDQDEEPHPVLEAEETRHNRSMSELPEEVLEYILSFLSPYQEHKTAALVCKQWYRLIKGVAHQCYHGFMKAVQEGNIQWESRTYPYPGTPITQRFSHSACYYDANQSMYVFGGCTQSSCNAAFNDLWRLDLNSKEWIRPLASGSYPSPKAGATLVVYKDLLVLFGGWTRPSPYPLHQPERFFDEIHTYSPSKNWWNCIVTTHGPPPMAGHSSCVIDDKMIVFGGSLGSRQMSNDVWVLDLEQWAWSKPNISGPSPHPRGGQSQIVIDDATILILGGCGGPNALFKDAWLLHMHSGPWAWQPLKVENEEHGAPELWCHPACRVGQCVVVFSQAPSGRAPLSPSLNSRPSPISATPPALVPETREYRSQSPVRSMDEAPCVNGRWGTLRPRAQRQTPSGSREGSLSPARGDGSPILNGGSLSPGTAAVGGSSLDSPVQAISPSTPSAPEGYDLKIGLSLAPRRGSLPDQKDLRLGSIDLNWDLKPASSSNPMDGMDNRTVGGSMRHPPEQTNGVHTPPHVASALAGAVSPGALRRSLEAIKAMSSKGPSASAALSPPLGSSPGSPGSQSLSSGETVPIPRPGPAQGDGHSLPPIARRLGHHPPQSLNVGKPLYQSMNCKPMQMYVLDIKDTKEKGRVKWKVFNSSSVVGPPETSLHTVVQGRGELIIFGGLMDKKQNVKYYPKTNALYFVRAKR", "UniProt Q5MIZ7": "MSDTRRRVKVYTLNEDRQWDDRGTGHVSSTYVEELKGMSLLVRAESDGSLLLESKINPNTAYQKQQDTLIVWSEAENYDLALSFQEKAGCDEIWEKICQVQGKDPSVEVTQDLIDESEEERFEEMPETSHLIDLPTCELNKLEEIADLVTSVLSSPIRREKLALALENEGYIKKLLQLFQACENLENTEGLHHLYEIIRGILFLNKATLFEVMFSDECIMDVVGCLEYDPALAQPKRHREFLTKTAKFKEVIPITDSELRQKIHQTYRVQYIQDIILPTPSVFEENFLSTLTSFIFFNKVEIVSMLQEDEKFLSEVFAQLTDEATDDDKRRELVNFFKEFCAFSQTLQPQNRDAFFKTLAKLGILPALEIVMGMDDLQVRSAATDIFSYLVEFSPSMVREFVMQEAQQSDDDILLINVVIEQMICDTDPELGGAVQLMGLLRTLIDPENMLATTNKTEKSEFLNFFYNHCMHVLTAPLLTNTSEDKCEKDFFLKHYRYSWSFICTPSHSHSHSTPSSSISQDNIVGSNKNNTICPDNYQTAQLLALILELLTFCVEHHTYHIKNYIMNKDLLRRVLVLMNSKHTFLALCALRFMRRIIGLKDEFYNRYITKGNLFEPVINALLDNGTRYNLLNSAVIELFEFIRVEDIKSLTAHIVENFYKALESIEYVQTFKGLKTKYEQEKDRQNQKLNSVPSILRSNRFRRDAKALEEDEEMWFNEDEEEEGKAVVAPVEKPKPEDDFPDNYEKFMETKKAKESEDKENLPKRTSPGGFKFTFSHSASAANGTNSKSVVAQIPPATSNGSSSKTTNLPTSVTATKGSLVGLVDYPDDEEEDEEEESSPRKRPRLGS"}, "source": "paper doi:10.1101/2025.05.02.651838", "key": {"[1]": {"target": "FBXO42 (bait of the IP-MS experiment) (UniProt Q6P3S6)", "assay": "affinity purification with mass spectrometry"}, "Flag PP4C": {"target": "T1, Flag PP4C (UniProt P60510)", "T1 sequence": "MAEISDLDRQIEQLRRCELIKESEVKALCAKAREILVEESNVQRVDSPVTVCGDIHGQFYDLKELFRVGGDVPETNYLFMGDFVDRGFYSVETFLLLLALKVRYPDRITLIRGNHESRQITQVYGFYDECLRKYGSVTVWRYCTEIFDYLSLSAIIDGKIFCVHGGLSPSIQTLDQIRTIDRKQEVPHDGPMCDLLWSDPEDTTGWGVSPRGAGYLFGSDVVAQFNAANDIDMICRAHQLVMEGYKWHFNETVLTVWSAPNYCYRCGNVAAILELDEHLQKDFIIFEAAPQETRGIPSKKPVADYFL", "assay": "affinity purification with mass spectrometry"}}, "note": "No constants are given. Whether binding was seen depends on the method and setting. In cells and extracts the contact can be indirect. Here binding means that the protein was enriched with, or labelled near, the bait; the list need not be complete. For some assays here: Where a sequence is shown, tags or fusion partners need not be part of it."}
{"substance": "PP4R3B (SMEK2) (from UniProt Q5MIZ7 1-849)", "values": [{"measurement": "binding", "setting": "[1]", "result": "binds"}, {"measurement": "binding", "setting": "Flag PP4C", "result": "binds"}]}
